Test results published in the supplement of paper PMC10849652.
This is one part of the list.

The chains behind the UniProt entries cited, without tags or fusion partners. Where a name states a change or a piece, a line headed by the entry shows the natural chain unless it says otherwise.
UniProt P17535: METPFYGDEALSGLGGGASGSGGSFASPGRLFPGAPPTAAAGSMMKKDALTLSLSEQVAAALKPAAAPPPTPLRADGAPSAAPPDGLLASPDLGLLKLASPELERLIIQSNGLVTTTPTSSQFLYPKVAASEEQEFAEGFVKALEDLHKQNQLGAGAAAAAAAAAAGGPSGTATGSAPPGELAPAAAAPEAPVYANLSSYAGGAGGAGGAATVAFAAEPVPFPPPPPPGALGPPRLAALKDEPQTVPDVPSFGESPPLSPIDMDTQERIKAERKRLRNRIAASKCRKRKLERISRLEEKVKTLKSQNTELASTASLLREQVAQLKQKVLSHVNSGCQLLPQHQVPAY
UniProt P19823: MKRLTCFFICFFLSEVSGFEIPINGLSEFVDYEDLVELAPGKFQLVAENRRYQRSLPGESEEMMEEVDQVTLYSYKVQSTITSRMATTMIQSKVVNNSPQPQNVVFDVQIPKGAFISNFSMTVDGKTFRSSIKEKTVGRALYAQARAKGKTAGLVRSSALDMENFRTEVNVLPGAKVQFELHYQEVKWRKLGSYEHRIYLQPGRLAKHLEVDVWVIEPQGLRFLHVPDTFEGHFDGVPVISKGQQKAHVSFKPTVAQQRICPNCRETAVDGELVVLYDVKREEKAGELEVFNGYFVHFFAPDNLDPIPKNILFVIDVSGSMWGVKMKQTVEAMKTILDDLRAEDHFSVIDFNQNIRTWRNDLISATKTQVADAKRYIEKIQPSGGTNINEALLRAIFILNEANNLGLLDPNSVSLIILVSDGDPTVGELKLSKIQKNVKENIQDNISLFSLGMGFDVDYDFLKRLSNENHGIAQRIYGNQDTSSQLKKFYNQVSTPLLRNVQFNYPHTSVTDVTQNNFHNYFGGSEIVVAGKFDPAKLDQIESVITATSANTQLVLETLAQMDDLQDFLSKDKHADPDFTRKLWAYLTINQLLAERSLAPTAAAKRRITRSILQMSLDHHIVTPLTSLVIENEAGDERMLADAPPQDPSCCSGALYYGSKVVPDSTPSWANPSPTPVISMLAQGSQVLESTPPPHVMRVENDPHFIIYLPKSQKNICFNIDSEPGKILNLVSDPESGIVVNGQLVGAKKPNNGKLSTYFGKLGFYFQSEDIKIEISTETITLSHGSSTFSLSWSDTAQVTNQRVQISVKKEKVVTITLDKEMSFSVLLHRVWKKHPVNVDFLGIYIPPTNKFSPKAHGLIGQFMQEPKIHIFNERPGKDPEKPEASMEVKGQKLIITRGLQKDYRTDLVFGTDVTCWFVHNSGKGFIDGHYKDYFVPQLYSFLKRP
UniProt Q9UK76: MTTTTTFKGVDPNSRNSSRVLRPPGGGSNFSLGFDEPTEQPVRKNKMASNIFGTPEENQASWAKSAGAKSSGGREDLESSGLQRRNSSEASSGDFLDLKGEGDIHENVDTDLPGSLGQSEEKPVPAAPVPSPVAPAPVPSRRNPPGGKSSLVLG
UniProt Q92830, whole entry, looked up: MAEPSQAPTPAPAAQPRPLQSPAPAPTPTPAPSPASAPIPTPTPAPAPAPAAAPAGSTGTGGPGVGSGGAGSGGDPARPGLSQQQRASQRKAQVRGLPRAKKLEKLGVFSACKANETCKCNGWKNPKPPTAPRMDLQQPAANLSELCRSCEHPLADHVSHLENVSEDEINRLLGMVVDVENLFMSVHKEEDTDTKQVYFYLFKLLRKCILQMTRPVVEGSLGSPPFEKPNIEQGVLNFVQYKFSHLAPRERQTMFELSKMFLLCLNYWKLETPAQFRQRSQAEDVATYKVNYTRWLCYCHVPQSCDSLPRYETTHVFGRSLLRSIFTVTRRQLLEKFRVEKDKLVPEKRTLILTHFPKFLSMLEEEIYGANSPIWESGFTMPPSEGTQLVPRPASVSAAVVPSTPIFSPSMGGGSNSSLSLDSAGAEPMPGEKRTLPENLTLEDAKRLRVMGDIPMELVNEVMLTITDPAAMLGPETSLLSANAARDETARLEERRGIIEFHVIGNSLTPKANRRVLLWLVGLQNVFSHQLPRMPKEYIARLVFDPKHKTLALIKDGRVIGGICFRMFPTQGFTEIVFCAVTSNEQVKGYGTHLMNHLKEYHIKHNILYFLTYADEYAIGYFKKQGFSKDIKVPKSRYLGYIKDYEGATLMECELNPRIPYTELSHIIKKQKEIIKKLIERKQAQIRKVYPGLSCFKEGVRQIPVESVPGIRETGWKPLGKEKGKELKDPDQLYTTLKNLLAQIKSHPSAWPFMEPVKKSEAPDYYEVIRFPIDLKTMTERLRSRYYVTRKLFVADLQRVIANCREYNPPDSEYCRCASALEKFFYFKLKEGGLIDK
UniProt Q86U28: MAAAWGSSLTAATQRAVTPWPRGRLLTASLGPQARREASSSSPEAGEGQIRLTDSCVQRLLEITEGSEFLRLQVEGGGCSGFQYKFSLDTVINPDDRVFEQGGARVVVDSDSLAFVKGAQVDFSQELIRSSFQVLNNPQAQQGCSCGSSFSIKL
UniProt P46940, whole entry, looked up: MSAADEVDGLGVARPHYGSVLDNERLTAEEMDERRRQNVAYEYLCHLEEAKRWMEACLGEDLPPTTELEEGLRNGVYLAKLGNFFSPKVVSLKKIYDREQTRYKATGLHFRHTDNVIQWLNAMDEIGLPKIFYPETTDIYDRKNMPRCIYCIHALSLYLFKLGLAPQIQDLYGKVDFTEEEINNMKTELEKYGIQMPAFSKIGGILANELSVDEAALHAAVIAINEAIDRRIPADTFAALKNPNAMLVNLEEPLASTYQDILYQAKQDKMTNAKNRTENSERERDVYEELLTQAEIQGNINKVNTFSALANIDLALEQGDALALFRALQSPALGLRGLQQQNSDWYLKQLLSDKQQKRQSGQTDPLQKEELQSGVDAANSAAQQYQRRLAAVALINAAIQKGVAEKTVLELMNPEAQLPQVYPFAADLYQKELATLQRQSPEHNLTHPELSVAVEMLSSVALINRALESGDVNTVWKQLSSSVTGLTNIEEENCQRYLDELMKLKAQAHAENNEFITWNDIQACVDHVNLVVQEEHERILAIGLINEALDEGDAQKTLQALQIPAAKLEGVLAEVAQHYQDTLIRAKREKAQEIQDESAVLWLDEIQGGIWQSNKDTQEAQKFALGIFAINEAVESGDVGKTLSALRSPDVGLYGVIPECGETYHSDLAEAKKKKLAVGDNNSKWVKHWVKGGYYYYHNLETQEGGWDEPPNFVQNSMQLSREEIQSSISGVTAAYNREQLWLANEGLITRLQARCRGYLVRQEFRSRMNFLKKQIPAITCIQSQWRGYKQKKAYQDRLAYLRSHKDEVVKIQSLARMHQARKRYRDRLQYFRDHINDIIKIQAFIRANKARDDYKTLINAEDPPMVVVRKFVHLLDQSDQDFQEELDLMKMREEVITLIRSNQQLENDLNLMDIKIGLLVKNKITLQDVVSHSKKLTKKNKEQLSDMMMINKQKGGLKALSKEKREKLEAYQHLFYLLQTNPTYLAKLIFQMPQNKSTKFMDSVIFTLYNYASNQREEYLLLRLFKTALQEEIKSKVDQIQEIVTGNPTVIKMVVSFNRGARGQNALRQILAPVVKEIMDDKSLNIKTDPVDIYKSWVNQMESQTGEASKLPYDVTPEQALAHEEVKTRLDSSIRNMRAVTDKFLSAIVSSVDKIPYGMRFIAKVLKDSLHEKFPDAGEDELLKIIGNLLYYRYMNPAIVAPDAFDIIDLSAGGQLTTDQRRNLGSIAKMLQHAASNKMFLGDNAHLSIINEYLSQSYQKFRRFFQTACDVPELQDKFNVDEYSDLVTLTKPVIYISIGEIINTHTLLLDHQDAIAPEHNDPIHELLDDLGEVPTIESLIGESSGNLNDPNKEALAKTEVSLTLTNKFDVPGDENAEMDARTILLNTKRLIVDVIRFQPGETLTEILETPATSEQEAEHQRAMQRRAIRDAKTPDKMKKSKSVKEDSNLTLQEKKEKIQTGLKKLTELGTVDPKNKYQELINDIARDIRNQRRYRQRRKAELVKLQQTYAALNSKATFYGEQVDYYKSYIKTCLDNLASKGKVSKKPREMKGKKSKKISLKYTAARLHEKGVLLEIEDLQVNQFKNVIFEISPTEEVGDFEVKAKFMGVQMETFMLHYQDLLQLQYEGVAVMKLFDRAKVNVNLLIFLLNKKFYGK
UniProt Q9H3F6: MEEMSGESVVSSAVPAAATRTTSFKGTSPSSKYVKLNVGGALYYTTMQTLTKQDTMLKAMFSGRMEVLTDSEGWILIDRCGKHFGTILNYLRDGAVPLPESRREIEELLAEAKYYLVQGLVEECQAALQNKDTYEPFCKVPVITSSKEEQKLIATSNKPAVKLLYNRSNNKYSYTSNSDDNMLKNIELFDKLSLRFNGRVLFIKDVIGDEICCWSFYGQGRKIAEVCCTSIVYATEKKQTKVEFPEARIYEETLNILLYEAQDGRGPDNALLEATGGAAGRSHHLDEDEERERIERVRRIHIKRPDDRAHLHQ
UniProt Q674X7: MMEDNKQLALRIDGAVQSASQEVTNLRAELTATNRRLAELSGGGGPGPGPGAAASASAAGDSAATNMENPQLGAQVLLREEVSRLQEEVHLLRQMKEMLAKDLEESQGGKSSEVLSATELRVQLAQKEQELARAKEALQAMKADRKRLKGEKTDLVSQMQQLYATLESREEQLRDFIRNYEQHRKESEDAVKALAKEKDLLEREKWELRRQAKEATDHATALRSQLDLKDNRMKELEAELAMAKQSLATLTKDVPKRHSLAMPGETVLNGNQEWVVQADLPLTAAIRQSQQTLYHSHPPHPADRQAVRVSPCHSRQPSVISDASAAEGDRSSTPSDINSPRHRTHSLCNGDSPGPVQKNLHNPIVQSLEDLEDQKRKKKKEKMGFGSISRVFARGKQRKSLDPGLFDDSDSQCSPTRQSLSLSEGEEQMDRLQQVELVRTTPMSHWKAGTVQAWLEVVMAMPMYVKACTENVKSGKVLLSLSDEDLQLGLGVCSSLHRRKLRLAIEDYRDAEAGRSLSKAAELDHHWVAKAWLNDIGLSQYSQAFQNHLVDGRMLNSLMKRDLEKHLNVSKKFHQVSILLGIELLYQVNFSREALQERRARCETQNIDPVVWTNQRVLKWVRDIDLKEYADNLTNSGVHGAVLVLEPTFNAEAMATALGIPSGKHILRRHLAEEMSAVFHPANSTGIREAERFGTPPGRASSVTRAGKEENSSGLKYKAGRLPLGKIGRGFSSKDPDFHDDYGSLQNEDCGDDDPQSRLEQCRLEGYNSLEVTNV
UniProt Q14681: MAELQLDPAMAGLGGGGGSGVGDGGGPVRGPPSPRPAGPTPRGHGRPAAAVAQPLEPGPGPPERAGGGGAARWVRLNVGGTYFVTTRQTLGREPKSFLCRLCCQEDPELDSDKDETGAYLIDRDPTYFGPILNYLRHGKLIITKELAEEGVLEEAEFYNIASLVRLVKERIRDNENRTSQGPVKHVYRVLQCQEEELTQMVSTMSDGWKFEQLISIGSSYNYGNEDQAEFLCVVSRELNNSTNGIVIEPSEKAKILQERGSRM
UniProt Q96J02: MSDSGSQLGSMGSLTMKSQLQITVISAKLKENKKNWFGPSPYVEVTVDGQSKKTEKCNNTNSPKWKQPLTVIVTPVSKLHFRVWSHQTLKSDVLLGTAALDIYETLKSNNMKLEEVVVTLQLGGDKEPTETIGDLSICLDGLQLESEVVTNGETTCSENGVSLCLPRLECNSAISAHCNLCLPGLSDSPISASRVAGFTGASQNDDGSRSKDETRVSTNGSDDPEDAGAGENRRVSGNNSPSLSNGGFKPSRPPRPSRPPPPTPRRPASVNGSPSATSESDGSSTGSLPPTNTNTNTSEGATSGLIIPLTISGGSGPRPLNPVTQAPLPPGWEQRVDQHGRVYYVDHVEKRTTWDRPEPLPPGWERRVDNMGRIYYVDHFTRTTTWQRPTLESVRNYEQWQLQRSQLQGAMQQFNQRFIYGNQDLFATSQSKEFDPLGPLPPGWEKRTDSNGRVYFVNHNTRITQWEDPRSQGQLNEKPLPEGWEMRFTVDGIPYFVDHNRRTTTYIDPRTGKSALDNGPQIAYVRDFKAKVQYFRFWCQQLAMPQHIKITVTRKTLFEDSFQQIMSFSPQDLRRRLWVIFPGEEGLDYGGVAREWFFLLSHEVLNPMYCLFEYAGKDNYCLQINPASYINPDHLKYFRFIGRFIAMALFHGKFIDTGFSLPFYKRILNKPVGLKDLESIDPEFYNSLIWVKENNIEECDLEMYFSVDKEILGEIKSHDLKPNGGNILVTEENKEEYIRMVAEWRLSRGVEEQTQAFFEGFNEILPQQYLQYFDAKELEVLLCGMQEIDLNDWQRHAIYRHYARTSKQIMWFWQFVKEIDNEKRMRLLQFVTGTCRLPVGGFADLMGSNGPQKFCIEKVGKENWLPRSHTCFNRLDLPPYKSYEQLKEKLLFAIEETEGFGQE
UniProt Q9BUE6: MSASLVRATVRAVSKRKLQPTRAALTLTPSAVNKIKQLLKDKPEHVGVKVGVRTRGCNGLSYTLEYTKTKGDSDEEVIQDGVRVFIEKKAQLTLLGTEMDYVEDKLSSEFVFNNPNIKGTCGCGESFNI

Compound: Cc1cc(Nc2cc(CN3CCOCC3)c3nc(C)c(Cc4ccc(Cl)cc4F)n3n2)n[nH]1 [gandotinib]
Test: log2 fold change, soluble protein after heating vs DMSO (PISA); higher = thermal stabilisation; K562 lysate, 10 uM; active = over 0.2 and 3.5 SD of the protein, either way, in both replicates (recomputed)
Procedure, shortened: (§1)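 Thermal stability, expressed as log-two fold change relative to solvent controls, is given from duplicates. Crude K562 extract in PBS pH 7.4 with 1 mM MgCl2, at 1 mg/mL protein, was treated with 10 μM compound for 30 min and heated in aliquots for 3 min across 48°C-58°C. After pooling, adjustment to 0.5% NP-40 at 4°C and centrifugation at 21,000xg for 90 min, supernatant protein was measured by TMTpro 16plex LC-MS/MS with channel sums equalised.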

| Target | log2 fold change |
| --- | --- |
| KDM1A (UniProt O60341) | inactive: -0.056 |
| IPO8 (UniProt O15397) | inactive: -0.149 |
| ITGB1 (UniProt P05556) | inactive: 0.012 |
| KCNK5 (UniProt O95279) | inactive: -0.148 |
| JUND (UniProt P17535) | inactive: 0.163 |
| ITIH2 (UniProt P19823) | inactive: 0.055 |
| JPT1 (UniProt Q9UK76) | inactive: 0.009 |
| KCNN4 (UniProt O15554) | inactive: 0.04 |
| IQUB (UniProt Q8NA54) | inactive: -0.027 |
| KATNBL1 (UniProt Q9H079) | inactive: -0.021 |
| KAT2A (UniProt Q92830) | inactive: -0.131 |
| ISCA2 (UniProt Q86U28) | inactive: 0.063 |
| ITGB1BP1 (UniProt O14713) | inactive: 0.004 |
| IQGAP3 (UniProt Q86VI3) | inactive: -0.076 |
| ITGA2B (UniProt P08514) | inactive: 0.155 |
| IQGAP1 (UniProt P46940) | inactive: -0.082 |
| JAK3 (UniProt P52333) | inactive: -0.526 |
| KCTD10 (UniProt Q9H3F6) | inactive: -0.074 |
| ITPR1 (UniProt Q14643) | inactive: -0.114 |
| KAZN (UniProt Q674X7) | inactive: 0.036 |
| ITM2A (UniProt O43736) | inactive: -0.108 |
| KDELR3 (UniProt O43731) | inactive: 0.051 |
| IRS2 (UniProt Q9Y4H2) | inactive: 0.296 |
| KCTD2 (UniProt Q14681) | inactive: 0.042 |
| KCNK1 (UniProt O00180) | inactive: 0.094 |
| ITCH (UniProt Q96J02) | inactive: 0.007 |
| ITGAE (UniProt P38570) | inactive: 0.109 |
| ITPRID2 (UniProt P28290) | inactive: -0.14 |
| JMJD7 (UniProt P0C870) | inactive: 0.005 |
| ISCA1 isoform 2 (UniProt Q9BUE6) | inactive: -0.132 |

Compound: Cc1cc(Nc2cc(N3CCN(C)CC3)nc(Sc3ccc(NC(=O)C4CC4)cc3)n2)n[nH]1 [tozasertib]
Test: as above
Procedure, shortened: as §1

| Target | log2 fold change |
| --- | --- |
| KDM1A (UniProt O60341) | inactive: -0.031 |
| IPO8 (UniProt O15397) | inactive: 0.001 |
| ITGB1 (UniProt P05556) | inactive: -0.005 |
| JUND (UniProt P17535) | inactive: -0.028 |
| ITM2C (UniProt Q9NQX7) | inactive: 0.037 |
| ITIH2 (UniProt P19823) | inactive: 0.022 |
| JUN (UniProt P05412) | inactive: 0.107 |
| JPT1 (UniProt Q9UK76) | inactive: -0.015 |
| KATNBL1 (UniProt Q9H079) | inactive: 0.169 |
| KAT2A (UniProt Q92830) | inactive: -0.061 |
| KBTBD7 (UniProt Q8WVZ9) | inactive: 0.14 |
| KCTD7 (UniProt Q96MP8) | inactive: 0.001 |
| ISCA2 (UniProt Q86U28) | inactive: 0.1 |
| ITGB1BP1 (UniProt O14713) | inactive: 0.107 |
| JTB (UniProt O76095) | inactive: 0.002 |
| IQGAP1 (UniProt P46940) | inactive: 0.026 |
| IST1 isoform 2 (UniProt P53990) | inactive: 0.203 |
| KCTD10 (UniProt Q9H3F6) | inactive: 0.028 |
| ITPR1 (UniProt Q14643) | inactive: -0.043 |
| KAT14 (UniProt Q9H8E8) | inactive: -0.008 |
| KAZN (UniProt Q674X7) | inactive: 0.064 |
| ITM2A (UniProt O43736) | inactive: -0.025 |
| KDELR3 (UniProt O43731) | inactive: 0.101 |
| KCTD2 (UniProt Q14681) | inactive: -0.215 |
| KCNK1 (UniProt O00180) | inactive: -0.068 |
| ITCH (UniProt Q96J02) | inactive: 0.041 |
| ITGAE (UniProt P38570) | inactive: 0.071 |
| ITPRID2 (UniProt P28290) | inactive: 0.058 |
| JMJD7 (UniProt P0C870) | inactive: -0.191 |
| ISCA1 isoform 2 (UniProt Q9BUE6) | inactive: -0.004 |

Compound: Cc1ccc(-n2nc(C(C)(C)C)cc2NC(=O)Nc2ccc(OCCN3CCOCC3)c3ccccc23)cc1 [doramapimod]
Test: as above
Procedure, shortened: as §1

| Target | log2 fold change |
| --- | --- |
| KDM1A (UniProt O60341) | inactive: 0.015 |
| IPO8 (UniProt O15397) | inactive: -0.001 |
| ITGB1 (UniProt P05556) | inactive: -0.016 |
| KCNK5 (UniProt O95279) | inactive: 0.087 |
| JUND (UniProt P17535) | inactive: 0.021 |
| ITM2C (UniProt Q9NQX7) | inactive: -0.083 |
| ITIH2 (UniProt P19823) | inactive: 0.035 |
| JUN (UniProt P05412) | inactive: 0.011 |
| JPT1 (UniProt Q9UK76) | inactive: -0.015 |
| KCNN4 (UniProt O15554) | inactive: -0.015 |
| KATNBL1 (UniProt Q9H079) | inactive: -0.069 |
| KAT2A (UniProt Q92830) | inactive: -0.168 |
| KBTBD7 (UniProt Q8WVZ9) | inactive: -0.05 |
| KCTD7 (UniProt Q96MP8) | inactive: 0.005 |
| ISCA2 (UniProt Q86U28) | inactive: 0.032 |
| IQGAP3 (UniProt Q86VI3) | inactive: 0.021 |
| JTB (UniProt O76095) | inactive: 0.016 |
| ITGA2B (UniProt P08514) | inactive: 0.054 |
| IQGAP1 (UniProt P46940) | inactive: -0.013 |
| IST1 isoform 2 (UniProt P53990) | inactive: 0.056 |
| JAK3 (UniProt P52333) | inactive: -0.081 |
| KCTD10 (UniProt Q9H3F6) | inactive: 0.003 |
| ITPR1 (UniProt Q14643) | inactive: -0.067 |
| KAZN (UniProt Q674X7) | inactive: -0.007 |
| KDELR3 (UniProt O43731) | inactive: -0.104 |
| IRS2 (UniProt Q9Y4H2) | inactive: 0.019 |
| KCTD2 (UniProt Q14681) | inactive: 0.032 |
| ITCH (UniProt Q96J02) | inactive: -0.044 |
| KDF1 (UniProt Q8NAX2) | inactive: -0.014 |
| ISCA1 isoform 2 (UniProt Q9BUE6) | inactive: 0.011 |
